Data published in patent publication US20050090520A1 (priority 2003, published 2005).
For at least one compound, name, drawing or mass did not settle the structure.

Assays:
[1] = Precipitation of FTY720 dosing solution on storage; assay type: physicochemical; conditions: 0.5 mg/ml in PBS with 0.1% mouse serum, after storage in 4° or −20°
[2] = test system: human hepatoma cell lines; conditions: Lee et al., 2004; cited from earlier work
[3] = test system: EAE; conditions: oral 0.3 mg/kg/day for two weeks from day of EAE induction; Brinkmann et al. 2002; cited from earlier work

## CCCCCCCCc1ccc(CCC(N)(CO)CO)cc1 [FTY720, 2-amino-2-[2-(4-octylphenyl)ethyl]-1,3-propanediol]
[1]
  Precipitation of solution: showed precipitates
[2]
  Induction of apoptosis: potent inducer of apoptosis
[3]
  Onset of MS-like symptoms: completely prevented the onset of MS-like symptoms
